# The list shows a part of the results. At the low end of the ranking the order means little.
# Biological target: T1, PUM1 PUF domain R1-QFR R2-VFQ R7-NPG S863Q + R864F + Q867R + N899V + Y900F + S1079N + N1080P + E1083G (UniProt Q14671)
# T1 sequence: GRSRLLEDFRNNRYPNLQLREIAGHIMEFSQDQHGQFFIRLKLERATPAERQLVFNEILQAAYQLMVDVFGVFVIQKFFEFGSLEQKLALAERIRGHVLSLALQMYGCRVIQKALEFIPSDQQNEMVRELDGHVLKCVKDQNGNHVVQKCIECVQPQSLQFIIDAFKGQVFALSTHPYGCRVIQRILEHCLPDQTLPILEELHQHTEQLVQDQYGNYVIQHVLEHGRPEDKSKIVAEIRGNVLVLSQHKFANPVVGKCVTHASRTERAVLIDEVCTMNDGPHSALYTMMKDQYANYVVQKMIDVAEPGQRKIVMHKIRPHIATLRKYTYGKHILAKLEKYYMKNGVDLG
# Conditions: yeast three-hybrid, YBZ-1, SC-Leu-His + 0.5 mM 3-AT, 4 days
row,Sequence,binding signal (log2 enrichment (interaction score))
1,GGCUAGAACUAGUGGAUCCCCCGGCGCCCGGCGGCUCGAGCCCGGGUAAGGUGAGAUUGUCUGCAUGCCGCCGGGCGCCAUGCCUGCAGGUCGACUCUAGAAAACAUG,-5.33
2,GGCUAGAACUAGUGGAUCCCCCGGCGCCCGGCGGCUCGAGCCCGGGUAAGUUCACAAAGUCUGCAUGCCGCCGGGCGCCAUGCCUGCAGGUCGACUCUAGAAAACAUG,-6.31
3,GGCUAGAACUAGUGGAUCCCCCGGCGCCCGGCGGCUCGAGCCCGGGUAAGGUGUGGUGGUCUGCAUGCCGCCGGGCGCCAUGCCUGCAGGUCGACUCUAGAAAACAUG,-5.45
4,GGCUAGAACUAGUGGAUCCCCCGGCGCCCGGCGGCUCGAGCCCGGGUAAGCGGCCACCGUCUGCAUGCCGCCGGGCGCCAUGCCUGCAGGUCGACUCUAGAAAACAUG,-5.72
5,GGCUAGAACUAGUGGAUCCCCCGGCGCCCGGCGGCUCGAGCCCGGGUAAGGAUCUCAAGUCUGCAUGCCGCCGGGCGCCAUGCCUGCAGGUCGACUCUAGAAAACAUG,< -5.65
6,GGCUAGAACUAGUGGAUCCCCCGGCGCCCGGCGGCUCGAGCCCGGGUAAGACUAAACAGUCUGCAUGCCGCCGGGCGCCAUGCCUGCAGGUCGACUCUAGAAAACAUG,-6.69
7,GGCUAGAACUAGUGGAUCCCCCGGCGCCCGGCGGCUCGAGCCCGGGUAAGGUUACGUCGUCUGCAUGCCGCCGGGCGCCAUGCCUGCAGGUCGACUCUAGAAAACAUG,-6.2
8,GGCUAGAACUAGUGGAUCCCCCGGCGCCCGGCGGCUCGAGCCCGGGUAAGGUGAAGAUGUCUGCAUGCCGCCGGGCGCCAUGCCUGCAGGUCGACUCUAGAAAACAUG,-6.78
9,GGCUAGAACUAGUGGAUCCCCCGGCGCCCGGCGGCUCGAGCCCGGGUAAGUCUAAAACGUCUGCAUGCCGCCGGGCGCCAUGCCUGCAGGUCGACUCUAGAAAACAUG,-2.45
10,GGCUAGAACUAGUGGAUCCCCCGGCGCCCGGCGGCUCGAGCCCGGGUAAGUUUGUUAGGUCUGCAUGCCGCCGGGCGCCAUGCCUGCAGGUCGACUCUAGAAAACAUG,-6.51
11,GGCUAGAACUAGUGGAUCCCCCGGCGCCCGGCGGCUCGAGCCCGGGUAAGCUGUAGAUGUCUGCAUGCCGCCGGGCGCCAUGCCUGCAGGUCGACUCUAGAAAACAUG,-5.92
12,GGCUAGAACUAGUGGAUCCCCCGGCGCCCGGCGGCUCGAGCCCGGGUAAGUUGGAUGUGUCUGCAUGCCGCCGGGCGCCAUGCCUGCAGGUCGACUCUAGAAAACAUG,< -5.99
13,GGCUAGAACUAGUGGAUCCCCCGGCGCCCGGCGGCUCGAGCCCGGGUAAGUUUUAUAAGUCUGCAUGCCGCCGGGCGCCAUGCCUGCAGGUCGACUCUAGAAAACAUG,-5.95
14,GGCUAGAACUAGUGGAUCCCCCGGCGCCCGGCGGCUCGAGCCCGGGUAAGGCUUACUUGUCUGCAUGCCGCCGGGCGCCAUGCCUGCAGGUCGACUCUAGAAAACAUG,< -5.7
15,GGCUAGAACUAGUGGAUCCCCCGGCGCCCGGCGGCUCGAGCCCGGGUAAGCUCAAGUCGUCUGCAUGCCGCCGGGCGCCAUGCCUGCAGGUCGACUCUAGAAAACAUG,-5.3
16,GGCUAGAACUAGUGGAUCCCCCGGCGCCCGGCGGCUCGAGCCCGGGUAAGUGAAGGUAGUCUGCAUGCCGCCGGGCGCCAUGCCUGCAGGUCGACUCUAGAAAACAUG,< -5.89
17,GGCUAGAACUAGUGGAUCCCCCGGCGCCCGGCGGCUCGAGCCCGGGUAAGAAGAAGAAGUCUGCAUGCCGCCGGGCGCCAUGCCUGCAGGUCGACUCUAGAAAACAUG,-5.13
18,GGCUAGAACUAGUGGAUCCCCCGGCGCCCGGCGGCUCGAGCCCGGGUAAGUUAAUAGGGUCUGCAUGCCGCCGGGCGCCAUGCCUGCAGGUCGACUCUAGAAAACAUG,< -5.48
19,GGCUAGAACUAGUGGAUCCCCCGGCGCCCGGCGGCUCGAGCCCGGGUAAGCUUAAGGAGUCUGCAUGCCGCCGGGCGCCAUGCCUGCAGGUCGACUCUAGAAAACAUG,-4.72
20,GGCUAGAACUAGUGGAUCCCCCGGCGCCCGGCGGCUCGAGCCCGGGUAAGUUAAGGUGGUCUGCAUGCCGCCGGGCGCCAUGCCUGCAGGUCGACUCUAGAAAACAUG,-5.83

row,Sequence,binding signal (log2 enrichment (interaction score))
1,GGCUAGAACUAGUGGAUCCCCCGGCGCCCGGCGGCUCGAGCCCGGGUAAGUUUAAUAUGUCUGCAUGCCGCCGGGCGCCAUGCCUGCAGGUCGACUCUAGAAAACAUG,-6.38
2,GGCUAGAACUAGUGGAUCCCCCGGCGCCCGGCGGCUCGAGCCCGGGUAAGUGUGGGAGGUCUGCAUGCCGCCGGGCGCCAUGCCUGCAGGUCGACUCUAGAAAACAUG,-6.41
3,GGCUAGAACUAGUGGAUCCCCCGGCGCCCGGCGGCUCGAGCCCGGGUAAGCGAAGGAUGUCUGCAUGCCGCCGGGCGCCAUGCCUGCAGGUCGACUCUAGAAAACAUG,-5.6
4,GGCUAGAACUAGUGGAUCCCCCGGCGCCCGGCGGCUCGAGCCCGGGUAAGUUUCAACCGUCUGCAUGCCGCCGGGCGCCAUGCCUGCAGGUCGACUCUAGAAAACAUG,-4.89
5,GGCUAGAACUAGUGGAUCCCCCGGCGCCCGGCGGCUCGAGCCCGGGUAAGGGGAGGGCGUCUGCAUGCCGCCGGGCGCCAUGCCUGCAGGUCGACUCUAGAAAACAUG,-5.88
6,GGCUAGAACUAGUGGAUCCCCCGGCGCCCGGCGGCUCGAGCCCGGGUAAGUUUUAGCCGUCUGCAUGCCGCCGGGCGCCAUGCCUGCAGGUCGACUCUAGAAAACAUG,-5.29
7,GGCUAGAACUAGUGGAUCCCCCGGCGCCCGGCGGCUCGAGCCCGGGUAAGUUCAAUGCGUCUGCAUGCCGCCGGGCGCCAUGCCUGCAGGUCGACUCUAGAAAACAUG,< -5.52
8,GGCUAGAACUAGUGGAUCCCCCGGCGCCCGGCGGCUCGAGCCCGGGUAAGGUGGCGACGUCUGCAUGCCGCCGGGCGCCAUGCCUGCAGGUCGACUCUAGAAAACAUG,< -5.13
9,GGCUAGAACUAGUGGAUCCCCCGGCGCCCGGCGGCUCGAGCCCGGGUAAGUAGUAAUGGUCUGCAUGCCGCCGGGCGCCAUGCCUGCAGGUCGACUCUAGAAAACAUG,-4.77
10,GGCUAGAACUAGUGGAUCCCCCGGCGCCCGGCGGCUCGAGCCCGGGUAAGUUAAUCUUGUCUGCAUGCCGCCGGGCGCCAUGCCUGCAGGUCGACUCUAGAAAACAUG,-5.21
11,GGCUAGAACUAGUGGAUCCCCCGGCGCCCGGCGGCUCGAGCCCGGGUAAGUUUCCAAAGUCUGCAUGCCGCCGGGCGCCAUGCCUGCAGGUCGACUCUAGAAAACAUG,< -6.25
12,GGCUAGAACUAGUGGAUCCCCCGGCGCCCGGCGGCUCGAGCCCGGGUAAGAUUAGCUAGUCUGCAUGCCGCCGGGCGCCAUGCCUGCAGGUCGACUCUAGAAAACAUG,< -5.48
13,GGCUAGAACUAGUGGAUCCCCCGGCGCCCGGCGGCUCGAGCCCGGGUAAGUUGACCUAGUCUGCAUGCCGCCGGGCGCCAUGCCUGCAGGUCGACUCUAGAAAACAUG,-5.56
14,GGCUAGAACUAGUGGAUCCCCCGGCGCCCGGCGGCUCGAGCCCGGGUAAGCUUUAAGAGUCUGCAUGCCGCCGGGCGCCAUGCCUGCAGGUCGACUCUAGAAAACAUG,< -6.74
15,GGCUAGAACUAGUGGAUCCCCCGGCGCCCGGCGGCUCGAGCCCGGGUAAGUGCGAAGAGUCUGCAUGCCGCCGGGCGCCAUGCCUGCAGGUCGACUCUAGAAAACAUG,-7.05
16,GGCUAGAACUAGUGGAUCCCCCGGCGCCCGGCGGCUCGAGCCCGGGUAAGAUUUAAUCGUCUGCAUGCCGCCGGGCGCCAUGCCUGCAGGUCGACUCUAGAAAACAUG,< -5.42
17,GGCUAGAACUAGUGGAUCCCCCGGCGCCCGGCGGCUCGAGCCCGGGUAAGUCUAUAAAGUCUGCAUGCCGCCGGGCGCCAUGCCUGCAGGUCGACUCUAGAAAACAUG,< -5.81
18,GGCUAGAACUAGUGGAUCCCCCGGCGCCCGGCGGCUCGAGCCCGGGUAAGUGGUGGACGUCUGCAUGCCGCCGGGCGCCAUGCCUGCAGGUCGACUCUAGAAAACAUG,-4.93
19,GGCUAGAACUAGUGGAUCCCCCGGCGCCCGGCGGCUCGAGCCCGGGUAAGACUACCUAGUCUGCAUGCCGCCGGGCGCCAUGCCUGCAGGUCGACUCUAGAAAACAUG,-5.06
